Data from PubChem BioAssay AID2417 (National Center for Advancing Translational Sciences (NCATS), 2010).
The campaign covered roughly 140,000 compounds. About 4,300 (3.1%) were called active. Inconclusive means that the source gave no clear call. Such entries were picked first, then a sample of the others.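 How the source made its calls: active means readout at or below -70, meaning at least 70% loss of cells showing the perinucleolar compartment, a nuclear body marking cancer cells; inconclusive means readout between -30 and a set limit; inactive means the rest.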

Test: High Content Assay for Compounds that inhibit the Assembly of the Perinucleolar Compartment;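 further: plate controls were DMSO wells for no effect and camptothecin positive control wells for full effect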
Settings: PC3M PTB-GFP, PNC prevalence imaging, 16 h; at 10 µM; active compounds read low
In short: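 Compounds are pinned in duplicate onto adhered PC3M cells stably expressing GFP-tagged PTB and incubated 16 h at 37 C. Cells are then fixed, nuclei stained with Hoechst, and PNC-positive cells counted.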

Row | SMILES | activity change (PNC), negative = inhibition
1 | CC(=O)Nc1cc(NC(C)=O)cc(C(=O)NC(C)(C)C)c1 | inconclusive: -47.6%
2 | Cn1c(=O)c2c(ncn2CC(N)=O)n(C)c1=O | inconclusive: -30.7%
3 | O=C(Cn1c(-c2cncs2)nc2ccccc21)NCc1ccccc1 | inconclusive: -62.2%
4 | Cc1onc(-c2ccccc2)c1C(=O)Nc1ccc(N2CCOCC2)cc1 | inconclusive: -68.1%
5 | COc1ccc(N=Nc2nc(-c3ccccc3)c(-c3ccccc3)[nH]2)cc1 | inconclusive: -65.3%
6 | COc1ccc(OCCSc2nnc(Cc3cccc4ccccc34)n2N)cc1 | inconclusive: -30.5%
7 | Cn1c(CNc2nc(-c3ccccc3)cs2)nnc1SCC(=O)OC1CCCCC1 | inconclusive: -33.5%
8 | Cc1ccc(C)n1-c1ccc(-c2nnco2)cc1 | inconclusive: -50%
9 | CC(=O)Nc1ccc(S(=O)(=O)Nc2nc3ccc(C)cc3s2)cc1 | inconclusive: -30.9%
10 | CC(C)(C)NC(=O)C(c1ccncc1)N(C(=O)CNC(=O)c1ccco1)c1ccc2c(c1)OCO2 (centres undefined) | inconclusive: -52.3%
11 | CN([C@@H](Cc1ccc(OS(=O)(=O)c2cccc3cnccc23)cc1)C(=O)N1CCN(c2ccccc2)CC1)S(=O)(=O)c1cccc2cnccc12 | inconclusive: -53.8%
12 | Cc1ccccc1S(=O)(=O)Cc1ccc(C(=O)NCCCN2CCN(C)CC2)o1 | inconclusive: -63%
13 | CCc1ccc(NC(=O)c2ccc(F)c(S(=O)(=O)N(CC)c3ccccc3)c2)cc1 | inconclusive: -38.2%
14 | COc1ccccc1NS(=O)(=O)c1cc([N+](=O)[O-])ccc1N/N=C/c1c[nH]c2ccccc12 | inactive: -1.61%
15 | CCc1c(C)nc(N)n2c(SCC(=O)N3CCCc4ccccc43)nnc12 | inconclusive: -59.3%
16 | COc1ccc(C/C(N)=N/OC(C)=O)cc1OC | inconclusive: -41.2%
17 | O=C(NCc1ccc(Cl)cc1)c1cc(-c2cccs2)on1 | inconclusive: -48.3%
18 | O=C(Nc1nnc(-c2ccccc2F)s1)C1CCCO1 (centres undefined) | inactive: 52%
19 | Cc1oc(-c2cccc(Cl)c2)nc1CN1CCC(C(=O)NCc2cccnc2)CC1 | inconclusive: -55.3%
20 | COc1ccc2cc3cc(C(=O)Nc4cc(OC)c(OC)c(OC)c4)oc3nc2c1 | active: -105%
21 | COc1ccc2nc(SCC(=O)N3CC(=O)Nc4ccccc43)c(C#N)cc2c1 | inconclusive: -68.6%
22 | COc1ccc(-n2c(-c3ccccc3)cc3c2CCCC3=O)cc1 | inactive: -1.79%
23 | Cc1ccc(-c2c[n+](CC(=O)OCc3ccccc3)c3n2CCC3)cc1 | inconclusive: -42.7%

Row | SMILES | activity change (PNC), negative = inhibition
24 | CC(=O)c1c(N2CCOCC2)nc(=O)n(-c2ccccc2)c1C | active: -80.4%
25 | COC(=O)c1ccc(NC(=O)C2CC(=O)N(c3cc(C)ccc3C)C2)cc1 (centres undefined) | inconclusive: -46.4%
26 | CCCn1c2c(c(O)c(C(=O)NCCCN(CC)CC)c1=O)CCCC2 | active: -100%
27 | Cc1nnc(SCC(=O)N2CCc3ccccc32)s1 | inactive: 17.7%
28 | CC(C)NS(=O)(=O)c1ccc(OCC(=O)Nc2ccc(F)cc2F)cc1 | inactive: 34.5%
29 | COc1ccc(C2C3=C(CC(C)(C)CC3=O)Nc3cc4c(cc32)OCO4)cc1 (centres undefined) | inconclusive: -57.1%
30 | O=C(O)C1C2C=CC(C2)C1C(=O)NCCc1ccccc1 (centres undefined) | inconclusive: -33.5%
31 | CCOC(=O)C1CCN(C(=O)COc2ccc(S(=O)(=O)NC(C)C)cc2)CC1 | inactive: -19.2%
32 | CCOc1ccc2nc(NC(=O)COC)sc2c1 | inactive: -22.1%
33 | CCN1C(=O)N(CC)C2C1N(C(C)=O)C(=O)N2C(C)=O (centres undefined) | inconclusive: -46.4%
34 | O=C1/C(=C/c2ccc(O)cc2)CCc2ccc([N+](=O)[O-])cc21 | inconclusive: -36.4%
35 | COc1ccccc1-c1c(C(F)(F)F)oc2cc(OC(=O)c3ccccc3[N+](=O)[O-])ccc2c1=O | inconclusive: -46.7%
36 | O=C(c1nc(-c2ccccc2)n(-c2ccccc2)n1)N1CCN(S(=O)(=O)c2ccccc2)CC1 | inconclusive: -51%
37 | CCc1nc(Nc2ccc(N3CCN(C(C)=O)CC3)cc2)c2oc3ccccc3c2n1 | inconclusive: -46.9%
38 | O=C(Nc1ccn(Cc2ccccc2F)n1)c1ccc(COc2ccc(Br)cc2)cc1 | active: -108%
39 | Cc1cc(-c2n[nH]c(=S)o2)c(C)n1-c1ccccc1 | inconclusive: -39.7%
40 | O=C(NCCc1nc2ccccc2[nH]1)/C(=C/c1ccc2c(c1)OCO2)NC(=O)c1ccccc1Cl | inconclusive: -32.1%
41 | N#Cc1nc(-c2cccs2)oc1NCc1ccco1 | inactive: 7.59%
42 | COc1cc2c(cc1OC)CN(C(=O)CCCOc1ccc(Cl)cc1Cl)CC2 | inconclusive: -49.2%
43 | Cc1cccn2c(/C=N/OCc3ccc(F)cc3)c(-c3ccc(Cl)cc3)nc12 | active: -109%
44 | CCN(CC)CCNC(=O)c1ccc(NC(=O)c2ccc(Cl)c(S(=O)(=O)Nc3ccccc3OC)c2)cc1 | inconclusive: -34.4%
45 | C/C(CC(=O)NC(C)(C)C)=N\NC(=O)c1ccco1 | inconclusive: -32.5%
46 | CC(/C=N/NC(=O)CN1CCN(Cc2ccc(Cl)cc2)CC1)=C\c1ccco1 | inactive: -23.8%

Row | SMILES | activity change (PNC), negative = inhibition
47 | Cc1ccccc1C(=O)OCCN1CCOCC1 | inconclusive: -33.9%
48 | CCc1ccc(Oc2cc(Cl)nc(N)n2)cc1 | inconclusive: -56.9%
49 | CCCc1cc(=O)[nH]c(SCC(=O)c2cc(C)n(CCC)c2C)n1 | inconclusive: -60.2%
50 | COC(=O)/C=c1/sc2nc3ccccc3n2c1=O | inactive: -24.5%
51 | CN(CCCNS(=O)(=O)c1cccc2cccnc12)Cc1ccccc1 | inactive: -8.21%
52 | O=C(NC1=NCCS1)c1ccc(OCC2CCCO2)cc1 (centres undefined) | inconclusive: -51.8%
53 | COc1cccc(CN2CCCC(C(=O)N3CCCCC3)C2)c1OC (centres undefined) | inconclusive: -45.7%
54 | Cc1ccc(S(=O)(=O)N2CCOCC2)cc1C(=O)Nc1ccc(-c2cn3ccsc3n2)cc1 | inconclusive: -33.9%
55 | Cc1csc2nc(CSc3nc4ccccc4o3)cn12 | inconclusive: -45.5%
56 | Cc1cc(O)c(NC(=O)c2ccco2)cc1C | inconclusive: -36%
57 | CCOC(=O)c1sc(/N=C/N(C)C)c(C(=O)OCC)c1C | active: -82.5%
58 | Cc1ccc(Sc2c(C#N)c(-c3ccccc3)nn2C)cc1 | inconclusive: -33.5%
59 | CCOc1ccc(C(=O)NCCN(C)C)cc1 | inconclusive: -33.5%
60 | COc1ccc(CCC(=O)Nc2ccc3c(c2)OCCO3)cc1 | inconclusive: -39.3%
61 | O=C(CSCc1ccc(Cl)cc1)Nc1cccc(C(=O)Nc2ccccc2C(=O)O)c1 | inconclusive: -44.5%
62 | O=C(CSc1nnc2ncccn12)N1CCCCCC1 | inconclusive: -65.7%
63 | Cc1ccc(C)c(N/N=C2\CCCNC2=O)c1 | inactive: 32.1%
64 | CCS(=O)(=O)N1Cc2ccccc2CC1C(=O)Nc1nc2c(C)cccc2s1 (centres undefined) | inactive: 26.2%
65 | COc1ccc(-c2c(C#N)c(N)nc3c2c(=O)n(C)c(=O)n3C)cc1 | inconclusive: -52.8%
66 | CC1(C)Oc2ccc(C(=O)NC3CCCC3)cc2N(CC(=O)NC2CCCCC2)C1=O | inconclusive: -47%
67 | Cn1c(=O)n(CCc2ccccc2)c(=O)c2c1nc1n2CCCN1CCc1ccccc1 | inconclusive: -65.7%
68 | Cc1ccccc1-c1nc(CS(=O)(=O)CC(=O)N2CCc3ccccc3C2)c(C)o1 | inconclusive: -36.1%
69 | Cc1ccn2c(C(=O)CSc3ccc(Cl)cc3Cl)c(C)nc2c1 | inconclusive: -30.5%

6 structures out of the list, ordered by SMILES length, smallest number first.
Row | SMILES | activity change (PNC), negative = inhibition
62 | O=C(CSc1nnc2ncccn12)N1CCCCCC1 | inconclusive: -65.7%
55 | Cc1csc2nc(CSc3nc4ccccc4o3)cn12 | inconclusive: -45.5%
53 | COc1cccc(CN2CCCC(C(=O)N3CCCCC3)C2)c1OC (centres undefined) | inconclusive: -45.7%
69 | Cc1ccn2c(C(=O)CSc3ccc(Cl)cc3Cl)c(C)nc2c1 | inconclusive: -30.5%
65 | COc1ccc(-c2c(C#N)c(N)nc3c2c(=O)n(C)c(=O)n3C)cc1 | inconclusive: -52.8%
54 | Cc1ccc(S(=O)(=O)N2CCOCC2)cc1C(=O)Nc1ccc(-c2cn3ccsc3n2)cc1 | inconclusive: -33.9%

Later entries.

Row | SMILES | activity change (PNC), negative = inhibition
70 | S=c1[nH]cc(-c2ccccc2)n1-c1ccccc1 | inactive: 1.05%
71 | Cc1cc(C(=O)N/N=C/c2cn[nH]c2-c2ccccc2)cs1 | active: -114%
72 | Cc1[nH]nc2c1/C(=N\O)CC(C)(C)C2 | inconclusive: -42.4%
73 | O=C1CN(C(=O)COC(=O)c2ccc(N3CCCCCC3)c([N+](=O)[O-])c2)c2ccccc2N1 | inactive: 13.1%
74 | CCOC(=O)N1CCN(Cc2nc3c(c(=O)n(C)c(=O)n3C)n2Cc2ccccc2C)CC1 | inactive: -17.3%
75 | CCN=c1scc(-c2ccccc2)n1/N=C/c1ccccn1 | active: -125%
76 | CCn1cc(C(=O)NCCC2=CCCCC2)c(=O)c2cc(S(=O)(=O)N(C)C)ccc21 | inconclusive: -55.3%
77 | COC(=O)C1=C(C)NC2=C(C(=O)C(C(=O)OC)C(c3ccc(OC)cc3)C2)C1c1ccccn1 (centres undefined) | inconclusive: -37.3%
78 | CCOc1ccc2cc(C(=O)c3ccccc3)c(=O)oc2c1 | inactive: -12%
79 | O=C(O)c1cc(C(=O)O)c(-c2ccccc2)c(C(=O)O)c1 | inactive: -25.8%
80 | COCCN1C(=O)c2ccccc2C(C(=O)N2CCN(c3ccccn3)CC2)C1c1ccc(F)cc1 (centres undefined) | active: -100%
81 | COc1ccccc1C(=O)OCc1c(F)cccc1Cl | inactive: 43.9%
82 | CC(Cc1ccccc1)N/C=C1/CC(=O)NC1=O (centres undefined) | inconclusive: -54%
83 | COc1cc(Nc2cc(C)nc3ncnn23)cc(OC)c1OC | inconclusive: -75.2%
84 | OC(COc1ccc(C2C=CCC2)cc1)CN1CCCCC1 (centres undefined) | inconclusive: -34.3%
85 | CCN1CCN(c2c(Cl)cccc2NC(=O)c2ccco2)CC1 | inconclusive: -44.1%
86 | COc1ccccc1N1CCN(Cc2nnnn2CCc2ccccc2)CC1 | inactive: -5.45%
87 | CCOc1ccccc1C1C2CCCCC2(O)CCN1C(=O)c1cccs1 (centres undefined) | inactive: -17%
88 | COc1cc(NC(=O)c2ccco2)c(OC)cc1NC(=O)Nc1ccc(Cl)cc1 | inactive: -2.88%
89 | COc1ccc(CNC(=O)CN(C2CCCCC2)S(C)(=O)=O)cc1 | inactive: -2.05%
